In patent US9062313B2, “Gem-difluorinated C-isopropylgalactoside derivates” (TFCHEM, priority 2011, dated 2015):

Test system: BLR(DE3) E. coli expression strain
Assay: Bacterial growth during the induction (OD at 600 nm)
Assay type: cell-based, Escherichia coli
Details: for time from which a concentration effect on bacterial growth was observed: post induction, 0.5 to 0.005 mM

| Compound | time from which a concentration effect on bacterial growth was observed [h] | bacterial growth, difference between IPTG and T-18 induction (same concentration (0.5, 0.1, 0.05, 0.01, 0.005 mM), 37° C., 24 h) |
| --- | --- | --- |
| CC(C)C(F)(F)[C@@H]1O[C@H](CO)[C@H](O)[C@H](O)[C@H]1O [Compound T-18] | ≥ 2 | no differences were observed |
| CC(C)S[C@@H]1O[C@H](CO)[C@H](O)[C@H](O)[C@H]1O [IPTG, isopropyl-β-D -thiogalactopyranoside, reference compound] | ≥ 8 |  |
